Results taken from PMC5653651.
Results are given in words; binding and its absence hold for the method and conditions named. In cells and extracts the contact can be indirect. For some assays here: Binding can be weak; no strength is given.

Legend:
[1] = molecular target: CtNup145C (full-length) (Chaetomium thermophilum); assay: pull-down; in vitro binding assay: purified prey in approximately fivefold molar excess over bait immobilised via ProtA, GST or Flag tag, in the presence of E. coli lysate; 50 min at 16 °C, HEPES–NB buffer (20 mM HEPES pH 7.5, 150 mM NaCl, 50 mM KOAc, 2 mM Mg(OAc)2, 5% glycerol, 0.01% NP40); SDS eluates, SDS-PAGE and coomassie staining; both purified
[2] = molecular target: CtNup145C-CTD (Chaetomium thermophilum); assay: as above
[3] = molecular target: CtNup145C-NTD (Chaetomium thermophilum); assay: as above
[4] = molecular target: CtY-vertex (CtNup145C–Nup85–Nup120 complex) (Chaetomium thermophilum); assay: as above
[5] = molecular target: GST-TEV-ScNup145C (Saccharomyces cerevisiae); assay: affinity co-purification of co-expressed proteins; ScY-vertex from E. coli co-expressing the five proteins, GSH beads via GST-TEV-ScNup145C

| Binder | binding [1] | binding [2] | binding [3] | binding [4] | binding [5] |
| --- | --- | --- | --- | --- | --- |
| CtSec13 (protein, UniProt G0SA60 1-308) MSQQASGAQVITNSGHDDMIHDAVLDYYGRRLATCSSDRTIKIFEIDGDSQRLTETLKGHDGAVWCVSWAHPKYGNILASAGYDGKVFIWRELNGAWSRIYDFALHKASVNVVSWAPHEAGCLLACASSDGSVSVLEFKDNSTWDYVIFPAHGLGVNSVSWAPATSPGSIVSSKPGPKATGNRRFVTGGSDNTLKIWAYDPATNTYKMEREPLTGHTDWVRDVAWSPTVLQKSYIASASQDGTVRIWTSDPANPLAWNCKVLHFDSALWRVSWSLSGNVLAVSGSDNKVTLWKENLKGEWECVKTIEE | binds | binds | no binding | binds |  |
| ScSec13 (protein, UniProt Q04491 1-297) MVVIANAHNELIHDAVLDYYGKRLATCSSDKTIKIFEVEGETHKLIDTLTGHEGPVWRVDWAHPKFGTILASCSYDGKVLIWKEENGRWSQIAVHAVHSASVNSVQWAPHEYGPLLLVASSDGKVSVVEFKENGTTSPIIIDAHAIGVNSASWAPATIEEDGEHNGTKESRKFVTGGADNLVKIWKYNSDAQTYVLESTLEGHSDWVRDVAWSPTVLLRSYLASVSQDRTCIIWTQDNEQGPWKKTLLKEEKFPDVLWRASWSLSGNVLALSGGDNKVTLWKENLEGKWEPAGEVHQ |  |  |  |  | binds |
